# Taken from: PubChem BioAssay AID1259308 (NCATS, 2017)
# Aim: 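Genes whose loss raises luciferase production in HEK293 cells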 (primary screen)
# Cell system: human HEK293 embryonic kidney cells stably expressing firefly luciferase (HEK-CMV-Luc2-Hygro)
# Reagent: single siRNA against human genes, 0.8 pmol siRNA per well
# Time to read-out: 72 h
# Detection: 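Luciferase light (ONE-Glo) measured on one replicate plate set and viability (CellTiter-Glo) on the other, scaled to a negative control siRNA, with robust z-scores and luciferase per cell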
# Scale: total luciferase, z-score and total luciferase, % of control: higher = more reporter protein produced; luciferase per cell, z-score: higher = more reporter output per viable cell; viable cells, % of control: higher = more viable cells
# Call rule: 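An siRNA counts as active if its total luciferase robust z-score exceeds 3; genes with two or more such siRNAs out of three were retested with fresh siRNAs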
# Calls: active = raised luciferase; inactive = no rise
# Here is one part, drawn at random, of about 59,000 reagents. Of all reagents, about 1,510 (2.6%) are marked active. 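Calls use total luciferase alone and ignore viability, so some active siRNAs may act by altering cell number.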 Reagents against one gene are numbered here.
target gene,siRNA no.,"total luciferase, z-score","total luciferase, % of control","luciferase per cell, z-score","viable cells, % of control",Outcome
FBXO25 (F-box protein 25),1,0.231,86.5,-0.135,100,inactive
FBXO25 (F-box protein 25),2,1.16,105,0.842,94,inactive
FBXO25 (F-box protein 25),3,0.223,86.3,-0.371,106,inactive
BTF3 (basic transcription factor 3),1,0.363,89.1,0.36,90.6,inactive
BTF3 (basic transcription factor 3),2,1.51,112,1.98,74.2,inactive
BTF3 (basic transcription factor 3),3,-1.96,43,-1.79,77,inactive
"RAVER2 (ribonucleoprotein, PTB binding 2)",1,-0.309,75.7,-0.416,94.4,inactive
"RAVER2 (ribonucleoprotein, PTB binding 2)",2,-0.0989,79.9,-0.409,99.5,inactive
"RAVER2 (ribonucleoprotein, PTB binding 2)",3,-0.138,79.1,-0.0278,89.1,inactive

The list goes on; the last 2 above are carried over.
target gene,siRNA no.,"total luciferase, z-score","total luciferase, % of control","luciferase per cell, z-score","viable cells, % of control",Outcome
"RAVER2 (ribonucleoprotein, PTB binding 2)",2,-0.0989,79.9,-0.409,99.5,inactive
"RAVER2 (ribonucleoprotein, PTB binding 2)",3,-0.138,79.1,-0.0278,89.1,inactive
NPY5R (neuropeptide Y receptor Y5),1,0.803,97.9,1.29,77.9,inactive
NPY5R (neuropeptide Y receptor Y5),2,-0.636,69.2,-0.792,95.3,inactive
NPY5R (neuropeptide Y receptor Y5),3,-0.209,77.7,-0.657,103,inactive
KLHL23 (kelch like family member 23),1,-0.698,68,-0.227,80.7,inactive
KLHL23 (kelch like family member 23),2,0.126,84.4,0.511,82.4,inactive
KLHL23 (kelch like family member 23),3,-0.335,75.2,-0.339,91.9,inactive
C6orf62 (chromosome 6 open reading frame 62),1,0.631,94.4,0.698,87.8,inactive
C6orf62 (chromosome 6 open reading frame 62),2,-0.403,73.9,-0.596,96.6,inactive
C6orf62 (chromosome 6 open reading frame 62),3,-0.593,70.1,0.0829,76.6,inactive
"HARS2 (histidyl-tRNA synthetase 2, mitochondrial)",1,-0.53,71.3,-0.462,90,inactive
"HARS2 (histidyl-tRNA synthetase 2, mitochondrial)",2,0.318,88.2,0.345,90,inactive
"HARS2 (histidyl-tRNA synthetase 2, mitochondrial)",3,1.71,116,1.42,89,inactive
RASL10A (RAS like family 10 member A),1,-0.904,63.9,-0.514,81.8,inactive
RASL10A (RAS like family 10 member A),2,-0.039,81.1,0.0279,90,inactive
RASL10A (RAS like family 10 member A),3,0.574,93.3,1.27,74.6,inactive
